# Results are given in words; binding and its absence hold for the method and conditions named. Some results given as binding are weak or reduced against the parent protein; the word gives no strength.
# By UniProt entry, the sequences of proteins in these tests, tags left out. Where a name states a change or a piece, a line headed by the entry shows the natural chain unless it says otherwise.
# UniProt P00747: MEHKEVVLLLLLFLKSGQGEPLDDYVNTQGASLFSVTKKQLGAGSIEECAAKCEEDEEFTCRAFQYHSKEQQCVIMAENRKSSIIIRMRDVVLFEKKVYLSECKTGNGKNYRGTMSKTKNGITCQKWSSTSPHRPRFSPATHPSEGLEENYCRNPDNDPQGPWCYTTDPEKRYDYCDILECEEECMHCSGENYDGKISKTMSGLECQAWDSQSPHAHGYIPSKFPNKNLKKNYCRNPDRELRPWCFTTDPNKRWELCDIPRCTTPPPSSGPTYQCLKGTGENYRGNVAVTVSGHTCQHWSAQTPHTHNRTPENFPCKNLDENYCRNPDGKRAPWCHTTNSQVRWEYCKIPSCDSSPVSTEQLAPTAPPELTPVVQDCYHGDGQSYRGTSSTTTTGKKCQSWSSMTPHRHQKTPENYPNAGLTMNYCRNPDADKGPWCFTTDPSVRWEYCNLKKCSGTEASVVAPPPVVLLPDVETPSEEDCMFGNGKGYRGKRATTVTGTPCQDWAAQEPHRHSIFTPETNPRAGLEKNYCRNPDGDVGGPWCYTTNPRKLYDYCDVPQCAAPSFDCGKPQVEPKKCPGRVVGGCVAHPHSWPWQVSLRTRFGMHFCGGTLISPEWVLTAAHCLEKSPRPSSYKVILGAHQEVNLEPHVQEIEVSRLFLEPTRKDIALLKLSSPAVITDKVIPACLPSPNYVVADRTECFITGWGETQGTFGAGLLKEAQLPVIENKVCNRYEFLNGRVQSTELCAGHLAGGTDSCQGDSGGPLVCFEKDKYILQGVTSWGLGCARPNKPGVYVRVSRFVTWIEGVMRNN
# UniProt P60902: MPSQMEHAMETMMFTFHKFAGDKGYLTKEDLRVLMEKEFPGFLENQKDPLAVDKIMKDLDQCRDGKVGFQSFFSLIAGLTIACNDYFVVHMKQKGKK
# Biological target: plasmin (Homo sapiens (Human)) (UniProt P00747)
# Test: summary of Example 12
substance,measurement,value
p11 (S100A10) (from UniProt P60902 2-97) (receptor),binding,binds

# From patent publication US20070231899A1 (published 2007)
